These are yes or no findings as the source states them, for the method shown. Binding seen in cells or lysates may run through a third protein. Some binding calls cover weakened binding; strength is not graded here. For some assays here: Where a sequence is shown, tags or fusion partners need not be part of it.

The chains behind the UniProt entries cited, without tags or fusion partners. Where a name states a change or a piece, a line headed by the entry shows the natural chain unless it says otherwise.
UniProt P39940: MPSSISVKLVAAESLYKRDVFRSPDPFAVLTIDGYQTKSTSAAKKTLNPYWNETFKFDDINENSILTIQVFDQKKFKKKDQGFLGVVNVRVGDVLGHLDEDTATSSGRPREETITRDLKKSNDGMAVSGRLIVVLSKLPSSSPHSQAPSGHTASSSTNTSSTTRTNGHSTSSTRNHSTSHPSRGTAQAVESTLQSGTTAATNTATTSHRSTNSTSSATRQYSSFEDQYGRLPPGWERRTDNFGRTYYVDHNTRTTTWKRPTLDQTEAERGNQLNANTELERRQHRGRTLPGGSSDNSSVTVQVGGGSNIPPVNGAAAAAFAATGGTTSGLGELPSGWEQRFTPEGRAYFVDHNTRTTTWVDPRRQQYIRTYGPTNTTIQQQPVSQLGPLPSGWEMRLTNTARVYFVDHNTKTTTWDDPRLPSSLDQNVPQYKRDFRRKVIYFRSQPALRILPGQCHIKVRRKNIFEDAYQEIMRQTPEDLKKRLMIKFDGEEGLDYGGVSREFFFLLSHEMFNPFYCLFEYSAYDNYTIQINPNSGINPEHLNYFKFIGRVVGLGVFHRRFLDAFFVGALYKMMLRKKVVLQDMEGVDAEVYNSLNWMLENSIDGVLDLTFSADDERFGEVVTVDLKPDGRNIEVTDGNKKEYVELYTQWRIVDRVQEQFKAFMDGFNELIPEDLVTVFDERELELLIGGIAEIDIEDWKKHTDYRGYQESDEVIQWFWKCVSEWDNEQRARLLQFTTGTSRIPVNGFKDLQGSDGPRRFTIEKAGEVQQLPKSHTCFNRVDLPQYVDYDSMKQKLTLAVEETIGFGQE
UniProt P53622: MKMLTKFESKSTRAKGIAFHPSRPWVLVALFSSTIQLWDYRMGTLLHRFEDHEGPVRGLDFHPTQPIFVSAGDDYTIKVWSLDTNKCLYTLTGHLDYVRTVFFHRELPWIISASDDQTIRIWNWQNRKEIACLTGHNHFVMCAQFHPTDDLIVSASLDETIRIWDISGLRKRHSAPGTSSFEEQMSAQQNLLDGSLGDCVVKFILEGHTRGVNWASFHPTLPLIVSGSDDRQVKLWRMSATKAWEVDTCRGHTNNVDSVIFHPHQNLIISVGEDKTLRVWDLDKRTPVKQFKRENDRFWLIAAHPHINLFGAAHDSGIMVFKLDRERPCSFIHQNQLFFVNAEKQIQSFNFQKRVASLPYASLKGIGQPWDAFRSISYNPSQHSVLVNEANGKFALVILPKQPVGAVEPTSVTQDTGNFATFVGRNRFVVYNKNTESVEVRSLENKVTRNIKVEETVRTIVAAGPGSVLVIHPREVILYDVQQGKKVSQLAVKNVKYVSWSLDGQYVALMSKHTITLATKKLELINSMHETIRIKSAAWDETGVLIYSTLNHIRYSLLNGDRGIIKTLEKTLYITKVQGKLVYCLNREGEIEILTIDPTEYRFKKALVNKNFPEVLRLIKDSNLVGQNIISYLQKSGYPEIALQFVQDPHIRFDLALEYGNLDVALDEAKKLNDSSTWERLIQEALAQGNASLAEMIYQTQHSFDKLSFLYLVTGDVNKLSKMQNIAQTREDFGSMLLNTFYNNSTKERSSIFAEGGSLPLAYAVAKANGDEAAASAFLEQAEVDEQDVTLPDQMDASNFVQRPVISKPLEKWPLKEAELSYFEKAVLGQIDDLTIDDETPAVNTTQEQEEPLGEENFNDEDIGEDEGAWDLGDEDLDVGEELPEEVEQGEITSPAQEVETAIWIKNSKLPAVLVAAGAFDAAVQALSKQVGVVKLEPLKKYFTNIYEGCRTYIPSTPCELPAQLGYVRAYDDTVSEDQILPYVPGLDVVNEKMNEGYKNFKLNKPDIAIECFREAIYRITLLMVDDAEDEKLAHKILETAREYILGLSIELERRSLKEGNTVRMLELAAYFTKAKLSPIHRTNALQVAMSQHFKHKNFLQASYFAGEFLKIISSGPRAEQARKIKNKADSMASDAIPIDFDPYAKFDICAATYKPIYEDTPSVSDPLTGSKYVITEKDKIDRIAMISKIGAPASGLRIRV

The target in assay [1] is T1, HA-tagged Sla1 protein (S. cerevisiae) (UniProt P32790).
T1 sequence: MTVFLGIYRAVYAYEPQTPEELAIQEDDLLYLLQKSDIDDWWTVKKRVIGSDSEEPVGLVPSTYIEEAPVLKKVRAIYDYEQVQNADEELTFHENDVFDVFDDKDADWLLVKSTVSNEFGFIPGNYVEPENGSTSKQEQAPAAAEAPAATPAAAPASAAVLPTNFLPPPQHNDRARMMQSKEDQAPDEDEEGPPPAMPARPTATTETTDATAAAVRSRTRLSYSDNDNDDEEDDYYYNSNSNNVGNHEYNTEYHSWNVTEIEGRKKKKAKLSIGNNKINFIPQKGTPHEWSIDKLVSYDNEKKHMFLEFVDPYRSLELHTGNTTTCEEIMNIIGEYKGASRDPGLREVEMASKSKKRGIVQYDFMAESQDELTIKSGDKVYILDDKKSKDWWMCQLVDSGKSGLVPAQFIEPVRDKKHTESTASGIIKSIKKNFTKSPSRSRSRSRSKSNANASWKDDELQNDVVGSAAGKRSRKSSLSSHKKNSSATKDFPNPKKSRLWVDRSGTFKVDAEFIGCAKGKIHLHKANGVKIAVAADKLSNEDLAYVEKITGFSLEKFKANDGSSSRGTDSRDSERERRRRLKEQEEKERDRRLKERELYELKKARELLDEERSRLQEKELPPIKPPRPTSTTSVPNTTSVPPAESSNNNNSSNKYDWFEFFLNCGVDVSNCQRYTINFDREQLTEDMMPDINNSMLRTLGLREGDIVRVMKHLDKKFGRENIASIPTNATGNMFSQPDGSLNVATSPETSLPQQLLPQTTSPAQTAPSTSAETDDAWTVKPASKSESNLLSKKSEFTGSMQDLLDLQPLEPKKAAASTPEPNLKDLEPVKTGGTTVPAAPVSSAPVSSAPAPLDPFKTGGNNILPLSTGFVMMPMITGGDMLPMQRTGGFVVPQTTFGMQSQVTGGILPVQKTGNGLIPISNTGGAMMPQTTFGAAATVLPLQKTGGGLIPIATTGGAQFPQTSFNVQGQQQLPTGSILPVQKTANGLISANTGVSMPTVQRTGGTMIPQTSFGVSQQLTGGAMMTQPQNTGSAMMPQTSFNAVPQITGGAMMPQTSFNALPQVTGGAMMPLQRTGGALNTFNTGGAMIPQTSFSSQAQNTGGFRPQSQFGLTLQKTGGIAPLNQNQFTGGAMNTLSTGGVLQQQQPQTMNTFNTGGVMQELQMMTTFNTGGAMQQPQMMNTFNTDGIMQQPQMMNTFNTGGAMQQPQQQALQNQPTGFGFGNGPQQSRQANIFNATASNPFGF
Nature of the assay: co-IP; immunoprecipitation with anti-HA antibody (16B12) from yeast protein extracts; total extract and IP fraction analysed by Western blotting with anti-HA and anti-coatomer (anti-COPI) antibody; done as in ref. 32. Background: In western blotting, separated proteins are transferred to a membrane and probed.

In assay [2] the target is HA-tagged Rsp5 ubiquitin ligase (S. cerevisiae) (UniProt P39940). The assay is described as above.

With “COPI complex (coatomer) (from UniProt P53622 1-1201; P41811 1-889; P40509 1-296; P32074 1-935; P41810 1-973; P53600 1-189; P43621 1-546)”, the binding entry in assay [1] and in assay [2] was “binds” each time.

The record behind these values is paper PMC3383674.
